Test results from PubChem BioAssay AID504467 (National Center for Advancing Translational Sciences (NCATS), 2011).
Among all 330,000 compounds or so, about 7,700 (2.3%) were called active. The shares of active, inactive and inconclusive entries below differ from those in the screen. The call rests on the fitted dose curve; in most records, active means well fitted inhibition curve with a large enough effect; inconclusive means small, poorly fitted or top-dose-only effect, or effect the other way; inactive means flat fitted curve, though single readings scatter. Where the call is inconclusive, the potency comes from a doubtful curve fit.

Assay: qHTS screen for small molecules that inhibit ELG1-dependent DNA repair in human embryonic kidney (HEK293T) cells expressing luciferase-tagged ELG1; further: nearly all actives have a fitted effect of over 55% in size
Settings: HEK293T ELG1-luciferase reporter, luminescence, 16 h, DNA damage induced by 5-fluorouridine; series mostly up to 46.1 µM
Procedure, shortened: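 Reporter activity after DNA damage by 5-fluorouridine is monitored. Compound-treated cells incubate 16 hr at 37 °C, then ONE-Glo is added for 30 min before luminescence reading.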
Potency means the concentration at half of the fitted maximal effect.

Structure (SMILES) | Potency
CCOC(=O)c1c(COC(=O)c2ccco2)nc2ccccc2[n+]1[O-] | inconclusive: 32.6 µM [activator, partial curve, poor fit]
O=C(NCc1nc(-c2ccc(C(F)(F)F)cc2)no1)Nc1cc(Cl)cc(Cl)c1 | inconclusive: 9.2 µM [activator, partial curve, poor fit]
Cc1ccc(S(=O)(=O)N(C)c2cc(S(N)(=O)=O)c(C)cc2C)cc1 | inconclusive: 18.3 µM [inhibitor, single point]
O=C(N/N=C/c1c(Cl)[nH]c2ccccc12)c1ccc2c(c1)OCCO2 | inconclusive: 14.6 µM [activator, partial curve]
O=S1(=O)CCOCCN1Cc1ccccc1 | inactive
COc1cc(OC)cc(C(=O)N[C@H](C(=O)Nc2nnc(C3CC3)s2)C(C)C)c1 | inactive
Cc1ccc(C)c(-c2nc3cc(N)ccc3o2)c1 | inconclusive: 12.6 µM [activator, partial curve]
Cc1cc(NCc2ccco2)n2ncnc2n1 | inconclusive: 23.1 µM [activator, partial curve, poor fit]
NC(=O)c1c(NC(=O)CSc2nnc(Cc3ccccc3)n2Cc2ccco2)sc2c1CCC2 | active: 23.1 µM
Cn1c(CN2CCCCC2)nc2cc(NS(=O)(=O)c3ccc(F)cc3)ccc21 | inactive
Cc1cnc(NCCc2ccccc2)s1 | inconclusive: 23.1 µM [activator, single point]
COc1ccc(S(=O)(=O)N2CCN(C(=O)c3cc4c(s3)CCCC4)CC2)cc1 | inconclusive: 25.9 µM [inhibitor, single point]
O=C(COc1ccccc1F)N/N=C1\CCCc2ccccc21 | inconclusive: 4.61 µM [activator, partial curve]
Cc1cc(C(=O)OCC(=O)N2CCN(C(=O)c3ccco3)CC2)c(C)n1-c1ccc(F)cc1 | inconclusive: 29.1 µM [inhibitor, single point]
O=C(NCc1ccccc1)C(c1ccncc1)N(C(=O)c1ccccn1)c1ccccc1 (stereo not drawn) | inconclusive: 18.3 µM [activator, single point]
CCN1CCN(C(=O)c2nn(C)c3c2CS(=O)(=O)c2ccccc2-3)CC1 | inconclusive: 20.6 µM [activator, single point]
O=c1c2ccccc2ncn1Cc1cccc2ccccc12 | inactive
Cc1ccc([N+](=O)[O-])cc1NC(=O)C(C)Sc1nnc(C)n1CC1CCCO1 (stereo not drawn) | inactive
COc1ccc(C(=O)NCC(c2cccnc2)N2CCN(c3ccccc3OC)CC2)cc1OC (stereo not drawn) | inactive
COc1cc(OC)cc(C(=O)N[C@H](C(=O)Nc2ccccc2N2CCOCC2)C(C)C)c1 | inconclusive: 25.9 µM [inhibitor, single point]
COc1cc2c3c(c1OC)C1(C=CC(=O)C=C1)CC3N(C(C)=O)CC2 (stereo not drawn) | inconclusive: 29.1 µM [activator, partial curve, poor fit]
O=C(c1ccco1)N1CCN(CCCCOc2cccc3ccccc23)CC1 | inactive
O=C(/C=C/c1ccc(N2CCOCC2)cc1)c1ccccc1 | inconclusive: 29.1 µM [activator, single point]
Cc1nn(-c2ccccc2)c(N2CCCC2)c1/C=N/NC(=S)Nc1ccccc1F | inconclusive: 23.1 µM [activator, single point]
CCCC(=O)Nc1ccc(Cl)c(NC(=S)NC(=O)c2cc3ccccc3o2)c1 | inconclusive: 18.4 µM [activator, single point]

Structure (SMILES) | Potency
COc1ccccc1OCC(O)Cn1nc(C)cc1C (stereo not drawn) | inconclusive: 10.3 µM [activator, partial curve]
CCN1CCN(CCC(=O)Nc2cc(OC)cc(OC)c2)CC1 | inactive
C=CCCCCc1nc2ccccc2c(=O)n1N | inconclusive: 2.06 µM [activator, partial curve]
COc1ccc(C(=O)Nc2cc(S(=O)(=O)N3CCCC3)ccc2Cl)cc1 | inconclusive: 32.6 µM [inhibitor, single point]
O=C(N/N=C/c1ccncc1)c1sc2ccccc2c1Cl | inactive
CC1=CC(C)(C)N(C(=O)CN2C(=O)CCC2=O)c2ccccc21 | inactive
COc1ccc2oc(-c3ccccc3)c(C(N)=O)c2c1 | inconclusive: 9.2 µM [activator, partial curve]
CCn1c(=O)c(-c2ccccc2)c(O)c2ccccc21 | inactive
Clc1ccc(CNc2ccccn2)cc1 | inconclusive: 23.1 µM [activator, single point]
O=C(NCc1ccco1)c1ccccc1SCC(=O)N1CCCC1 | inactive
N=c1c2c(-c3ccccc3)c(-c3ccccc3)n(Cc3ccco3)c2ncn1Cc1ccco1 | inactive
CC(C)(C)Nc1nc(SCC(=O)Nc2ccccc2)nc(N2CCOCC2)n1 | inactive
Cc1ccc(NC(=O)CN2CCc3cc4c(cc3C2)OCCCO4)cc1 | inconclusive: 32.6 µM [inhibitor, single point]
Cc1ccc(S(=O)(=O)N/N=C/c2cc([N+](=O)[O-])ccc2O)cc1[N+](=O)[O-] | inconclusive: 32.6 µM [activator, single point]
Nc1nc2c(c(=O)[nH]1)CN(Cc1ccccc1)CC2 | inconclusive: 29.1 µM [activator, single point]
COc1ccc(/C=C(\C#N)C(=O)N=CN(C)C)cc1 | inconclusive: 18.3 µM [activator, single point]
O=C(NCC1(c2ccccc2)CCCC1)c1ccccc1Br | inconclusive: 29.1 µM [activator, partial curve, poor fit]
Cc1cc(O)cc2c1C(=O)/C(=C/c1ccco1)O2 | inconclusive: 11.6 µM [activator, partial curve]
CCc1sc(C(=O)Nc2ccc3c(c2)OCO3)cc1C | inconclusive: 0.58 µM [activator, partial curve, poor fit]
COc1ccc(C(=O)N/N=C(\c2ccccc2)c2ccccn2)cc1 | inconclusive: 29.1 µM [activator, single point]
CC(C)N(Cc1cc2ccccc2[nH]c1=O)C(=O)c1ccco1 | inconclusive: 6.51 µM [inhibitor, single point]
CCN1CCN(c2cc(C)c3cc(NC(=S)NCCN(C)C)ccc3n2)CC1 | inactive
CCCOC(=O)c1ccc(NC(=O)C2CCCO2)cc1 (stereo not drawn) | inconclusive: 14.6 µM [activator, partial curve]
Cc1ccc(NC(=O)c2ccc([N+](=O)[O-])s2)cc1S(=O)(=O)N1CCOCC1 | active: 6.51 µM
CC(=O)Oc1c(Br)cc(N(C(C)=O)S(=O)(=O)c2ccccc2)c2ccccc12 | active: 23.1 µM

Structure (SMILES) | Potency
CCCCn1c2c(c(=N)c3ccccc31)CCC2 | active: 1.64 µM
COC(=O)c1ccc([C@@H](O)[C@H](C)C(=O)CC(=O)OC(C)(C)C)cc1 | inconclusive: 29.1 µM [activator, single point]
O=C(CCN1CCCCCC1)Nc1ccc2c(c1)OCCO2 | inactive
Cc1ccc(S(=O)(=O)N2CCC[C@H]2C(=O)OCC(=O)N2CCc3ccccc32)cc1 | inactive
CC1(C2CC2)NC(=O)N(CC(=O)N2CCN(c3cccc(C(F)(F)F)c3)CC2)C1=O (stereo not drawn) | inconclusive: 23.1 µM [inhibitor, partial curve]
Cc1ccc(C)c(C(C)NC(=O)C2C3CCC(O3)C2C(=O)O)c1 (stereo not drawn) | inconclusive: 18.4 µM [activator, partial curve]
COc1ccc(C(=O)Nc2cc(C(F)(F)F)ccc2-n2cncn2)cc1 | inactive
CCOC(=O)c1sc(NC(=O)CSc2ncccn2)nc1C | inactive
CCOc1ccc(CCNc2nc3c(c(=O)n(C)c(=O)n3C)n2CC)cc1OCC | inconclusive: 2.91 µM [inhibitor, full curve]
Oc1ccc(/C=N/Nc2nccnc2Cl)c(O)c1 | inconclusive: 29.1 µM [activator, single point]
COCCNCC(=O)N1c2ccccc2Sc2ccccc21 | inactive
COc1ccc(CC(=O)O)cc1O | inconclusive: 20.6 µM [activator, partial curve, poor fit]
CCCCOc1ccc(C(=O)OCC(=O)N2CCCCCC2)cc1 | inconclusive: 20.6 µM [inhibitor, single point]
COc1ccccc1N1CCN(C(=O)c2oc3ccc(F)cc3c2C)CC1 | inconclusive: 25.9 µM [inhibitor, single point]
Cc1ccc(Nc2ncc3c(n2)CC(C)(C)CC3=O)cc1 | inconclusive: 2.59 µM [activator, full curve]
COc1ccccc1N1CCN(C(=O)c2oc3ccc(Br)cc3c2C)CC1 | inconclusive: 4.61 µM [inhibitor, partial curve, poor fit]
O=c1ccc(Oc2nc(N3CCCCC3)nc(N3CCCCC3)n2)n[nH]1 | inconclusive: 18.4 µM [activator, single point]
CCCN(Cc1nnc(-c2ccccc2Cl)o1)C(=O)c1oc2ccccc2c1C | inconclusive: 35.5 µM [inhibitor, single point]
O=[N+]([O-])c1ccc2ncnc(N3CCN(Cc4ccc5c(c4)OCO5)CC3)c2c1 | active: 2.06 µM
COCc1cc(C)nc2sc(C(=O)Nc3ccccc3F)c(N)c12 | inactive
Cc1csc(NC(=O)Cc2coc3cc(C)c(C(C)C)cc23)n1 | inconclusive: 29.1 µM [activator, single point]
Cc1ccccc1OCC(O)CN (stereo not drawn) | inactive
O=C(NCC(O)c1ccc2ccccc2c1)c1c(F)cccc1F (stereo not drawn) | inconclusive: 29.1 µM [inhibitor, single point]
